# Experimental data published in the supplement of paper PMC10849652.
# The chains behind the UniProt entries cited, without tags or fusion partners. Where a name states a change or a piece, a line headed by the entry shows the natural chain unless it says otherwise.
# UniProt P49454: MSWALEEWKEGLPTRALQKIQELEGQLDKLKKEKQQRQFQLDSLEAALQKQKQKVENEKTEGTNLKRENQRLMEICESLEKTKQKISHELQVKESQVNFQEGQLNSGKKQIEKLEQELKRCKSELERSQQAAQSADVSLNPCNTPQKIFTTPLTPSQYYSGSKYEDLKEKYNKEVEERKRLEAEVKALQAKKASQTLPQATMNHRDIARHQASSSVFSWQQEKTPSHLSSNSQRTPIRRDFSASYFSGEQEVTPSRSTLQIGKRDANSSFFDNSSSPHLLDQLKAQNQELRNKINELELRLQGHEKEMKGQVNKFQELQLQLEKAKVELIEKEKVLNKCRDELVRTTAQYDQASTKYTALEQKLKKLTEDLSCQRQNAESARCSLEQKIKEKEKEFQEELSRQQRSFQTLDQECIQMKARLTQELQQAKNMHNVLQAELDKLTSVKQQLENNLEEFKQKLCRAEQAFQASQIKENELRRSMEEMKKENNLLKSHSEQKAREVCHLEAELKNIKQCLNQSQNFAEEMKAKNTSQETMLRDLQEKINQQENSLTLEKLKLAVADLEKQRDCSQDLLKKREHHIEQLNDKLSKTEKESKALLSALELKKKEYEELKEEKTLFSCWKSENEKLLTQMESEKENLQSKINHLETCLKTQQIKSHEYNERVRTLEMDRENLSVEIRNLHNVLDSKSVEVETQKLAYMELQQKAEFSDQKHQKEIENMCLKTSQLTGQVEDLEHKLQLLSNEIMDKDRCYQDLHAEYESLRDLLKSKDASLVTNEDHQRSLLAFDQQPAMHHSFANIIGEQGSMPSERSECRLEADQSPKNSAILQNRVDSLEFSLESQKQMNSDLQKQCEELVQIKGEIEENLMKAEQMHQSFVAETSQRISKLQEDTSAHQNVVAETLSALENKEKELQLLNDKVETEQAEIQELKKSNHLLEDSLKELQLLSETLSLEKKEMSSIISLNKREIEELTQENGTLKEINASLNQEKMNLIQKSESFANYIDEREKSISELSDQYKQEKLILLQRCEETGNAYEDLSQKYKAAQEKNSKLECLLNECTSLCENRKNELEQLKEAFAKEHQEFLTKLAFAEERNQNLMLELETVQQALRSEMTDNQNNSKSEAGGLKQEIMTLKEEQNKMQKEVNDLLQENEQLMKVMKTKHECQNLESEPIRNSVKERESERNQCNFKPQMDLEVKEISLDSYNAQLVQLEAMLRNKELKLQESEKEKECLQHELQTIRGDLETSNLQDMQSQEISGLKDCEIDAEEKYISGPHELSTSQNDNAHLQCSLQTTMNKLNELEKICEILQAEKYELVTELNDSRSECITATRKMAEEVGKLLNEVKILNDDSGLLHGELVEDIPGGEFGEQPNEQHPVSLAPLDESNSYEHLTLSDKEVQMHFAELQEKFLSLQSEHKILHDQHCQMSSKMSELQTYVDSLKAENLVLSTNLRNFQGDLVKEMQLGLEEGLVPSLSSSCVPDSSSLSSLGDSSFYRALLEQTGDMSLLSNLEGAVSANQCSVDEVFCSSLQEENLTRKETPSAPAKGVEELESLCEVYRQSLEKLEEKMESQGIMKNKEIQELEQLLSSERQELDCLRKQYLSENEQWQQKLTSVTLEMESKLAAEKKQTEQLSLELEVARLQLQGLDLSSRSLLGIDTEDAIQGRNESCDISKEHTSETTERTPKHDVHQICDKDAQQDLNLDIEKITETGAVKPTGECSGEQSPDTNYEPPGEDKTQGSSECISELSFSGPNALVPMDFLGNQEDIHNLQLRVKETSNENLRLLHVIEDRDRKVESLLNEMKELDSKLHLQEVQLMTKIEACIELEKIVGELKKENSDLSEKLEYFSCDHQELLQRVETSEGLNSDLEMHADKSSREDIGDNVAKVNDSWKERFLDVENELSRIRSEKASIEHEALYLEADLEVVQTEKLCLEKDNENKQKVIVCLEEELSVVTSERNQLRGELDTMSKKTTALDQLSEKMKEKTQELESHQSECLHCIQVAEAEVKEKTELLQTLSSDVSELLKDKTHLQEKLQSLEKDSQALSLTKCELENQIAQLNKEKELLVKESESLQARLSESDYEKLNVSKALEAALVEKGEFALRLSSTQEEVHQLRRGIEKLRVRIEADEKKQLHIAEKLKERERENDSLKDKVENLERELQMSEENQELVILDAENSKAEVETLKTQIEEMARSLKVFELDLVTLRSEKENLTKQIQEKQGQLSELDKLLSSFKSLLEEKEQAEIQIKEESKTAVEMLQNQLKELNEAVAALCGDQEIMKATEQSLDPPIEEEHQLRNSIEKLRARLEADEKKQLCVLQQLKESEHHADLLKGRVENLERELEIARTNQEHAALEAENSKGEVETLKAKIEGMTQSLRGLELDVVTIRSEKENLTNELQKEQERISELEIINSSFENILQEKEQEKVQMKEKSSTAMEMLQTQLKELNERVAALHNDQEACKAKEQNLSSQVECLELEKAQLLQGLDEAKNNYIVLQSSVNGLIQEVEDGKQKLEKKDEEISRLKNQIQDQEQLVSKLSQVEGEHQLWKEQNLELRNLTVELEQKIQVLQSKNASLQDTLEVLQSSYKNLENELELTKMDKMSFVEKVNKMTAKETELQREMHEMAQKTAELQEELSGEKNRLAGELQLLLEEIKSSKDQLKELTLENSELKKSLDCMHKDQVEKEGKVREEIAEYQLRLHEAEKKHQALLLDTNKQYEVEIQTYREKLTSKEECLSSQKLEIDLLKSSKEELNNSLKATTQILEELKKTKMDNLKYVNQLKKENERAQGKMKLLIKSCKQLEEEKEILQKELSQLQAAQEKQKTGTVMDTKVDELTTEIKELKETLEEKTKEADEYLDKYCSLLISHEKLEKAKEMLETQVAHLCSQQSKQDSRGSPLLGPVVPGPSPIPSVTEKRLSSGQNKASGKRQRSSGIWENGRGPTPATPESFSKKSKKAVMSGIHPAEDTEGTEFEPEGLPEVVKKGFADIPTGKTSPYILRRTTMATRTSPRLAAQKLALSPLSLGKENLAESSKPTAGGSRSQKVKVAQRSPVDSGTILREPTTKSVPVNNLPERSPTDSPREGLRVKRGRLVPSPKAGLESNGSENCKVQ
# UniProt P11802: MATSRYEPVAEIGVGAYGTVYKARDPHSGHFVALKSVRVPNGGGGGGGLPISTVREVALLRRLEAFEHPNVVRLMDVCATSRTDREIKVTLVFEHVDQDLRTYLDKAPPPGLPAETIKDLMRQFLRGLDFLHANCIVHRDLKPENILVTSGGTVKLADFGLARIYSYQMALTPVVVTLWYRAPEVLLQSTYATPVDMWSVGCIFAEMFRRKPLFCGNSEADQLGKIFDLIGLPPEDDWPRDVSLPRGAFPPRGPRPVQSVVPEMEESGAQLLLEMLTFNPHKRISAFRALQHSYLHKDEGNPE
# UniProt P30307: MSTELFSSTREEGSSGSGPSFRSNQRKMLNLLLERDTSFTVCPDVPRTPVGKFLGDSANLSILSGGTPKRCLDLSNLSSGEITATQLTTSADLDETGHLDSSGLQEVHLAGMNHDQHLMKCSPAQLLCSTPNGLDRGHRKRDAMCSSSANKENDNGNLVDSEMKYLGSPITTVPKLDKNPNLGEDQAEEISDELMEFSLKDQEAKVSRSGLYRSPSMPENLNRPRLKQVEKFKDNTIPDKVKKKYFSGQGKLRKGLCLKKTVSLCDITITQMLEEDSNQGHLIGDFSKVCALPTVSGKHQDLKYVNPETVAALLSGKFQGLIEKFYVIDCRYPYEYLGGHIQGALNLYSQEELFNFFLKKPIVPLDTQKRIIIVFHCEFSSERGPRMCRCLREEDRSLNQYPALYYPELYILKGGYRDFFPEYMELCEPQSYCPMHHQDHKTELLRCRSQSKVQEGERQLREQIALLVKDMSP
# UniProt Q53EZ4: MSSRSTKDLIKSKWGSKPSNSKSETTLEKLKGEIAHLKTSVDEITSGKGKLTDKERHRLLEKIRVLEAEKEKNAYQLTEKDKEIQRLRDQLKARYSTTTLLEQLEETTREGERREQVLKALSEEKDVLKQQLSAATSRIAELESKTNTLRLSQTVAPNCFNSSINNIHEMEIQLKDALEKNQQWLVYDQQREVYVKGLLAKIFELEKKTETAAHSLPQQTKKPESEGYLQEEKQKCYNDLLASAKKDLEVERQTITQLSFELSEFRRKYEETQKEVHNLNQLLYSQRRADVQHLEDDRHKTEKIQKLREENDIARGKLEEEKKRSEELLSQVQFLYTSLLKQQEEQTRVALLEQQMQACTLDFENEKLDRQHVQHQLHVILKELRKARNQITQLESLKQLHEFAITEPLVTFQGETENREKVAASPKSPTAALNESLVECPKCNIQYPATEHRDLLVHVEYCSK
# UniProt P30305: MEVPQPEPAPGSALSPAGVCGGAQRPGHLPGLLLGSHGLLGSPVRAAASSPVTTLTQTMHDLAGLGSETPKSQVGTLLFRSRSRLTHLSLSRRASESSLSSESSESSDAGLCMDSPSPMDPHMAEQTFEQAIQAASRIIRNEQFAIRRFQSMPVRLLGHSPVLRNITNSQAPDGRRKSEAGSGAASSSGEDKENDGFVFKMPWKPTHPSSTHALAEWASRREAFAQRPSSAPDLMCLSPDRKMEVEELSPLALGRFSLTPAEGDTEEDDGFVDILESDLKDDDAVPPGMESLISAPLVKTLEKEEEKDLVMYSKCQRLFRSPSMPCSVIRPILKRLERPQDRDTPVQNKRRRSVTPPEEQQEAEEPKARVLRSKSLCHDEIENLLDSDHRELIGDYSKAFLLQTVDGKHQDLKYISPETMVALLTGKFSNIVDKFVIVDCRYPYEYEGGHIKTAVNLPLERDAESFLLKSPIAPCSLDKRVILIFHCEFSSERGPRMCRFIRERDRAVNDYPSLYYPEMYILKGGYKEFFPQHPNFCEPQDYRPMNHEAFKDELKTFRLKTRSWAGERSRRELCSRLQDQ
# UniProt O00748: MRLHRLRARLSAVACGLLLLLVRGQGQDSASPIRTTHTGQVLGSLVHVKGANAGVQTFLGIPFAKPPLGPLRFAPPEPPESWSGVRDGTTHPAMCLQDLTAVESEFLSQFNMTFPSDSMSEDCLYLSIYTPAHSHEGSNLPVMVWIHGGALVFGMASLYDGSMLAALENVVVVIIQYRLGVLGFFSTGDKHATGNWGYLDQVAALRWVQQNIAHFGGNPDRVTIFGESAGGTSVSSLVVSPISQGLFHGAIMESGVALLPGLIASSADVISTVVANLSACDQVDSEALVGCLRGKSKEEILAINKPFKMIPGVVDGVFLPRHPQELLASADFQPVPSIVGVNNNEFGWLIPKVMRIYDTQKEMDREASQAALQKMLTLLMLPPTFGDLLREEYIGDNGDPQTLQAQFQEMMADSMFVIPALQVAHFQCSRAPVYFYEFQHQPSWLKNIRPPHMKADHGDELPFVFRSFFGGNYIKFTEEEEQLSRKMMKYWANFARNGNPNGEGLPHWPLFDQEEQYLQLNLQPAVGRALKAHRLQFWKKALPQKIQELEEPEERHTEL
# UniProt P23528, whole entry, looked up: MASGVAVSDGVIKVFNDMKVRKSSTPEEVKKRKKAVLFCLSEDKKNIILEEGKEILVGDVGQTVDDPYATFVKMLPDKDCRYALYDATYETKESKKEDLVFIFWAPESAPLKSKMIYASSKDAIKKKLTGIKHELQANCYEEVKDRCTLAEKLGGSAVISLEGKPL
# UniProt Q99618: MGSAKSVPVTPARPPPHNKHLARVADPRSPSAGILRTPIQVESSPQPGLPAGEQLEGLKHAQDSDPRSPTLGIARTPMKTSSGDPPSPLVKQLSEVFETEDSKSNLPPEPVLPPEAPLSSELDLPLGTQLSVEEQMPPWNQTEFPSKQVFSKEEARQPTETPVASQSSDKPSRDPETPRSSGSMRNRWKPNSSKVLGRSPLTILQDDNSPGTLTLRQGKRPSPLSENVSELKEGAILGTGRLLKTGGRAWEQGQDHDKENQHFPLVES
# UniProt P50750, whole entry, looked up: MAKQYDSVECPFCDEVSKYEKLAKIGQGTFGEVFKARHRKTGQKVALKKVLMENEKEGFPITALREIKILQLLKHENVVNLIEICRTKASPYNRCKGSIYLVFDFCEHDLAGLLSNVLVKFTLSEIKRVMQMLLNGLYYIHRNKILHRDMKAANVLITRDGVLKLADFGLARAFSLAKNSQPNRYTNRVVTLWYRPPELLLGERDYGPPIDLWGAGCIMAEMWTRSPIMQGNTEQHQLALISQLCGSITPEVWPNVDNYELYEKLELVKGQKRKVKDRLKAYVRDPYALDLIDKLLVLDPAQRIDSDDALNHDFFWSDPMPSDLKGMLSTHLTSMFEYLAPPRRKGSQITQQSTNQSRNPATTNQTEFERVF
# UniProt O14735: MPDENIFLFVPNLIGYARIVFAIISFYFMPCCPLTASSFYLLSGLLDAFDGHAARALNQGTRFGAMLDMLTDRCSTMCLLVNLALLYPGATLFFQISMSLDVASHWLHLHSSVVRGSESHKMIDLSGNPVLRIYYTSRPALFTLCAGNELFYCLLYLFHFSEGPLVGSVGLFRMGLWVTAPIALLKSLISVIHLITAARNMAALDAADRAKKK
# The other results are listed elsewhere or left out.
# How the values were obtained:
# Test in all cases: log2 fold change, soluble protein after heating vs DMSO (PISA); higher = thermal stabilisation; K562 lysate, 10 uM; active = over 0.2 and 3.5 SD of the protein, either way, in both replicates (recomputed)
# ibrutinib = compound: C=CC(=O)N1CCC[C@@H](n2nc(-c3ccc(Oc4ccccc4)cc3)c3c(N)ncnc32)C1 [ibrutinib]
# Method in brief: (§1)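 Thermal stability, expressed as log-two fold change relative to solvent controls, is given from duplicates. Crude K562 extract in PBS pH 7.4 with 1 mM MgCl2, at 1 mg/mL protein, was treated with 10 μM compound for 30 min and heated in aliquots for 3 min across 48°C-58°C. After pooling, adjustment to 0.5% NP-40 at 4°C and centrifugation at 21,000xg for 90 min, supernatant protein was measured by TMTpro 16plex LC-MS/MS with channel sums equalised.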
# [1] = compound: CC(=O)c1cnc2ccc(-c3cc(Cl)c(O)c(Cl)c3)nc2c1N[C@H]1CC[C@H](CN(C)C)CC1
# Method in brief: as §1
# ralimetinib = compound: CC(C)(C)Cn1c(N)nc2ccc(-c3[nH]c(C(C)(C)C)nc3-c3ccc(F)cc3)nc21 [ralimetinib]
# Method in brief: as §1
# [2] = compound: CC(C)(O)CC(=O)NCCn1ccc2ncnc(Nc3ccc(Oc4cccc(C(F)(F)F)c4)c(Cl)c3)c21
# Method in brief: as §1
# [3] = compound: CC(C)C1=C2N=C(C=C(N2N=C1)NCC3=CC=CC=C3)NCCCCCCN
# Method in brief: as §1
# [4] = compound: CC1=C(C(CC(=O)N1)C2=CC=C(C=C2)C(F)(F)F)C(=O)NC3=C(C=C4C(=C3)C=NN4)F
# Method in brief: as §1
# [5] = compound: CC1=C(C2=C(C=C1)C(=O)C3=CC=CC=C3N2CCCN)C
# Method in brief: as §1
# [6] = compound: CC1=C(C=C(C=C1)NC(=O)C2=CC(=CC=C2)C(C)(C)C#N)NC3=CC4=C(C=C3)N=CN(C4=O)C
# Method in brief: as §1
# [7] = compound: CC1=C(C=C(C=C1)NC(=O)C2=CC(=CC=C2)N(C)C)NC(=O)C3=CC=C(C=C3)O
# Method in brief: as §1
# [8] = compound: CC1=CC=C(C=C1)SC2=C3C=C(SC3=CN=C2)C(=O)N
# Method in brief: as §1
Target,log2 fold change (ibrutinib),log2 fold change [1],log2 fold change (ralimetinib),log2 fold change [2],log2 fold change [3],log2 fold change [4],log2 fold change [5],log2 fold change [6],log2 fold change [7],log2 fold change [8]
CEP97 (UniProt Q8IW35),inactive: 0.02,inactive: 0.057,inactive: 0,inactive: -0.02,inactive: -0.022,inactive: 0.013,inactive: 0,inactive: 0.036,inactive: 0.051,inactive: 0.004
CDC42EP1 (UniProt Q00587),inactive: -0.022,inactive: 0.052,inactive: -0.047,inactive: -0.033,inactive: 0.03,inactive: 0.147,inactive: -0.197,inactive: -0.027,inactive: 0.096,inactive: -0.023
CERT isoform 3 (UniProt Q9Y5P4),inactive: 0.021,inactive: 0.004,inactive: 0.002,inactive: -0.006,inactive: -0.021,inactive: 0.016,inactive: -0.028,inactive: 0.003,inactive: 0.019,inactive: 0.013
CENPF (UniProt P49454),inactive: 0.022,inactive: -0.04,inactive: 0.016,inactive: -0.012,inactive: -0.016,inactive: 0.012,inactive: -0.006,inactive: 0.006,inactive: -0.006,inactive: -0.03
CDK4 (UniProt P11802),inactive: 0.072,inactive: 0.137,inactive: -0.032,inactive: -0.052,inactive: -0.007,inactive: 0,inactive: -0.066,inactive: -0.019,inactive: -0.009,inactive: -0.035
CDC123 (UniProt O75794),inactive: 0.025,inactive: 0.022,inactive: 0.06,inactive: 0.008,inactive: 0.027,inactive: 0.045,inactive: 0.016,inactive: -0.071,inactive: 0.031,inactive: 0.003
CDK1 (UniProt P06493),inactive: -0.071,active: 0.433,inactive: 0.018,inactive: -0.037,inactive: -0.026,inactive: -0.029,inactive: 0.01,inactive: 0.033,inactive: 0.011,inactive: 0
CERS2 (UniProt Q96G23),inactive: 0.056,inactive: 0.006,inactive: 0.194,inactive: 0.035,inactive: 0.006,inactive: -0.059,inactive: 0.039,inactive: 0.038,inactive: -0.008,inactive: 0.012
CDV3 (UniProt Q9UKY7),inactive: 0.029,inactive: 0.016,inactive: -0.021,inactive: -0.004,inactive: -0.031,inactive: -0.013,inactive: -0.01,inactive: -0.04,inactive: -0.012,inactive: -0.012
CDC25C (UniProt P30307),inactive: 0.006,inactive: 0.01,inactive: 0.013,inactive: 0.091,inactive: -0.027,inactive: 0.026,inactive: 0.059,inactive: -0.022,inactive: -0.004,inactive: -0.019
CEP55 (UniProt Q53EZ4),inactive: -0.016,inactive: 0.063,inactive: 0,inactive: -0.027,inactive: -0.032,inactive: -0.019,inactive: 0.025,inactive: 0.005,inactive: 0.107,inactive: -0.043
CDC25B (UniProt P30305),inactive: 0.002,inactive: 0.108,inactive: 0.075,inactive: -0.011,inactive: -0.074,inactive: -0.028,inactive: -0.044,inactive: 0.008,inactive: -0.039,inactive: 0.065
CES2 isoform 4 (UniProt O00748),active: 0.431,inactive: -0.048,inactive: -0.031,inactive: 0.057,inactive: -0.004,inactive: 0.202,inactive: -0.128,inactive: 0.079,inactive: -0.019,inactive: -0.025
CELF2 isoform 3 (UniProt O95319),inactive: -0.016,inactive: 0.062,inactive: -0.019,inactive: -0.015,inactive: 0.001,inactive: 0.025,inactive: 0.01,active: -0.413,inactive: 0.018,inactive: 0.014
CDC23 (UniProt Q9UJX2),inactive: 0.022,inactive: 0.004,inactive: -0.002,inactive: -0.017,inactive: 0.006,inactive: -0.004,inactive: 0.016,inactive: 0.01,inactive: 0.002,inactive: 0.035
CDC42EP4 (UniProt Q9H3Q1),inactive: 0.07,inactive: -0.014,inactive: 0.034,inactive: -0.006,inactive: 0.01,inactive: 0.024,inactive: 0.026,inactive: 0.155,inactive: -0.018,inactive: -0.035
CENPE (UniProt Q02224),inactive: 0.063,inactive: 0.042,inactive: 0.004,inactive: -0.038,inactive: 0.011,inactive: 0.019,inactive: 0.003,inactive: 0.005,inactive: 0.021,inactive: 0.013
CDKN1C (UniProt P49918),inactive: 0.002,inactive: -0.001,inactive: 0.055,inactive: -0.045,inactive: 0.077,inactive: 0.017,inactive: 0.006,inactive: -0.032,inactive: 0.023,inactive: 0.005
CEP192 (UniProt Q8TEP8),inactive: 0.022,inactive: -0.026,inactive: -0.021,inactive: -0.031,inactive: -0.021,inactive: 0.087,inactive: -0.024,inactive: -0.009,inactive: 0.035,inactive: 0.03
CDC27 (UniProt G5EA36),inactive: 0.106,inactive: -0.015,inactive: 0.173,inactive: 0.062,inactive: 0.011,inactive: -0.009,inactive: -0.012,inactive: 0.074,inactive: -0.07,inactive: 0.023
CDCA2 (UniProt Q69YH5),inactive: -0.069,inactive: -0.055,inactive: -0.076,inactive: -0.195,inactive: 0.04,inactive: -0.092,inactive: 0.068,inactive: -0.033,inactive: -0.013,inactive: -0.186
CDAN1 (UniProt Q8IWY9),inactive: 0.035,inactive: -0.004,inactive: 0,inactive: -0.029,inactive: -0.02,inactive: -0.001,inactive: -0.023,inactive: 0.035,inactive: 0.056,inactive: -0.008
CFL1 (UniProt P23528),inactive: -0.025,inactive: 0.015,inactive: -0.014,inactive: -0.008,inactive: -0.007,inactive: -0.036,inactive: 0.02,inactive: -0.03,inactive: -0.019,inactive: -0.004
CDCA3 (UniProt Q99618),inactive: 0.047,inactive: -0.022,inactive: -0.016,inactive: -0.04,inactive: -0.005,inactive: -0.02,inactive: -0.003,inactive: 0.008,inactive: -0.01,inactive: -0.059
CDC5L (UniProt Q99459),inactive: 0.03,inactive: 0.001,inactive: 0.057,inactive: 0.037,inactive: 0.015,inactive: 0.003,inactive: -0.012,inactive: 0.02,inactive: 0.013,inactive: 0.031
CDSN (UniProt Q15517),inactive: -0.156,inactive: -0.141,inactive: -0.051,inactive: 0.692,inactive: 0.012,inactive: 0.369,inactive: 0.128,inactive: -0.046,inactive: 0.044,inactive: -0.173
CDR2L (UniProt Q86X02),inactive: 0.06,inactive: 0.039,inactive: -0.013,inactive: -0.079,inactive: 0.043,inactive: -0.022,inactive: 0.055,inactive: -0.02,inactive: -0.035,inactive: -0.081
CDK9 isoform 2 (UniProt P50750),inactive: -0.042,inactive: 0.269,inactive: 0.013,inactive: 0.026,inactive: -0.092,inactive: -0.026,inactive: -0.021,inactive: -0.032,inactive: 0.004,inactive: -0.021
CDK8 (UniProt P49336),inactive: 0.006,inactive: 0.097,inactive: -0.041,inactive: -0.011,inactive: -0.073,inactive: -0.058,inactive: 0.095,inactive: 0.088,inactive: 0.016,inactive: 0.16
CDIPT (UniProt O14735),inactive: -0.013,inactive: 0.026,inactive: -0.036,inactive: -0.031,inactive: -0.036,inactive: 0.031,inactive: 0.022,inactive: -0.101,inactive: 0.016,inactive: 0.043

# 7 entries from above, bar-delimited.
Target | log2 fold change (ibrutinib) | log2 fold change [1] | log2 fold change (ralimetinib) | log2 fold change [2] | log2 fold change [3] | log2 fold change [4] | log2 fold change [5] | log2 fold change [6] | log2 fold change [7] | log2 fold change [8]
CDV3 (UniProt Q9UKY7) | inactive: 0.029 | inactive: 0.016 | inactive: -0.021 | inactive: -0.004 | inactive: -0.031 | inactive: -0.013 | inactive: -0.01 | inactive: -0.04 | inactive: -0.012 | inactive: -0.012
CEP55 (UniProt Q53EZ4) | inactive: -0.016 | inactive: 0.063 | inactive: 0 | inactive: -0.027 | inactive: -0.032 | inactive: -0.019 | inactive: 0.025 | inactive: 0.005 | inactive: 0.107 | inactive: -0.043
CELF2 isoform 3 (UniProt O95319) | inactive: -0.016 | inactive: 0.062 | inactive: -0.019 | inactive: -0.015 | inactive: 0.001 | inactive: 0.025 | inactive: 0.01 | active: -0.413 | inactive: 0.018 | inactive: 0.014
CDC23 (UniProt Q9UJX2) | inactive: 0.022 | inactive: 0.004 | inactive: -0.002 | inactive: -0.017 | inactive: 0.006 | inactive: -0.004 | inactive: 0.016 | inactive: 0.01 | inactive: 0.002 | inactive: 0.035
CDC27 (UniProt G5EA36) | inactive: 0.106 | inactive: -0.015 | inactive: 0.173 | inactive: 0.062 | inactive: 0.011 | inactive: -0.009 | inactive: -0.012 | inactive: 0.074 | inactive: -0.07 | inactive: 0.023
CFL1 (UniProt P23528) | inactive: -0.025 | inactive: 0.015 | inactive: -0.014 | inactive: -0.008 | inactive: -0.007 | inactive: -0.036 | inactive: 0.02 | inactive: -0.03 | inactive: -0.019 | inactive: -0.004
CDIPT (UniProt O14735) | inactive: -0.013 | inactive: 0.026 | inactive: -0.036 | inactive: -0.031 | inactive: -0.036 | inactive: 0.031 | inactive: 0.022 | inactive: -0.101 | inactive: 0.016 | inactive: 0.043
